{
  "source": "patent US20110038948A1",
  "about": "“Methods of Reducing the Production of Reactive Oxygen Species and Methods of Screening or Identifying Compounds and Compositions that Reduce the Production of Reactive Oxygen Species” (UNIVERSITY OF TENNESSEE RESEARCH FOUNDATION, priority 2005, published 2011)",
  "key": {"MIF": {"tested_on": "MIF", "test": "MIF expression in 3T3-L1 adipocytes", "assay_type": "cell-based, mouse", "settings": "nifedipine 10 μmol/L plus calcitriol"}, "TNFα": {"tested_on": "TNFα", "test": "TNFα expression in RAW 264 macrophages", "assay_type": "cell-based", "settings": "RAW 264 macrophages cultured alone; compound added to calcitriol", "experimental": "RAW 264 macrophages and 3T3-L1 preadipocytes (American Type Culture Collection) were incubated at a density of 8000 cells/cm2 (10 cm2 dish) and grown in Dulbecco's modified Eagle's medium (DMEM) containing 10% FBS and antibiotics (adipocyte medium) at 37° C. in 5% CO2 in air. Confluent 3T3-L1 preadipocytes were induced to differentiate with a standard differentiation medium consisting of DMEM-F10 (1:1, vol/vol) medium supplemented with 1% FBS, 1 μM dexamethasone, IBMX (0.5 mM) and antibiotics (1% Penicillin-Streptomycin). Preadipocytes were maintained in this differentiation medium for 3 days and subsequently cultured in adipocyte medium. […]\nCells were washed with fresh adipocyte medium, re-fed with medium containing the indicated treatments, and incubated at 37° C. in 5% CO2 for 48 hours before analysis. Cell viability was measured via trypan blue exclusion.\nHuman adipocytes (Zen-Bio, Inc.), 3T3-L1 adipocytes, RAW264 macrophages were obtained and co-cultured by using transwell inserts with 0.4 μm porous membranes (Corning) to separate adipocytes and macrophages. All data are expressed as mean±SEM. Data were evaluated for statistical significance by analysis of one-way or two-way variance (ANOVA; means with different letter differ, p<0.05). […]"}, "C2C12 myotubes": {"tested_on": "C2C12 myotubes", "test": "Fatty acid oxidation (palmitate oxidation) in muscle cells", "assay_type": "cell-based, murine", "experimental": "FIG. 53: Fatty acid oxidation was determined via palmitate oxidation. […] Data are corrected for DNA content. Values are presented as mean±SEM, n=6. Means with different letter differ with p<0.05.\nThe adipose tissue-skeletal muscle endocrine axis may play a potential role in regulating metabolic energy partitioning. […] While both calcium and dairy accelerate adipose tissue loss, dairy exerts a substantially greater effect and exerts a protective effect on lean tissue during hypocaloric diets. We have shown that dietary calcium modulation of adiposity is mediated, in part, by suppression of calcitriol, while the additional effect of dairy is mediated by additional bioactive components; these include the high concentration of leucine, a key factor in the regulation of muscle protein turnover. […] However, the effect of leucine and calcium, in regulating this process is unclear. Accordingly, present study was designed to investigate the effect of leucine, calcitriol and calcium on energy metabolism in murine adipocytes and muscle cells. Leucine induced a 41% increase in fatty acid oxidation in C2C12 muscle cells (p<0.001) and decreased fatty acid synthase gene expression by 66% (p<0.001) in 3T3-L1 adipocytes. Calcitriol decreased muscle cell fatty acid oxidation by 17% (p<0.05) and increased adipocyte FAS gene expression by 3-fold (p<0.05)."}, "IL-6": {"tested_on": "IL-6", "test": "IL-6 expression in differentiated human adipocytes", "assay_type": "cell-based", "settings": "nifedipine 10 μmol/L plus 1α, 25-(OH)2-D3, 48 h"}, "IL-8": {"tested_on": "IL-8", "test": "IL-8 expression in differentiated human adipocytes", "assay_type": "cell-based", "settings": "nifedipine 10 μmol/L plus 1α, 25-(OH)2-D3, 48 h"}, "3T3-L1 adipocytes [1]": {"tested_on": "3T3-L1 adipocytes", "test": "Intracellular ROS generation in cultured adipocytes (H2-DCFDA)", "assay_type": "cell-based, mouse", "settings": "compound plus glucose 30 mmol/L, 48 hours", "experimental": "3T3-L1 preadipocytes were incubated at a density of 8000 cells/cm^2 (10 cm^2 dish) and grown in Dulbecco's modified Eagle's medium (DMEM) containing 10% FBS and antibiotics (adipocyte medium) at 37° C. in 5% CO2 in air. Confluent preadipocytes were induced to differentiate with a standard differentiation medium consisting of DMEM-F10 (1:1, vol/vol) medium supplemented with 1% FBS, 1 μM dexamethasone, IBMX (0.5 mM) and antibiotics (1% Penicillin-Streptomycin). Preadipocytes were maintained in this differentiation medium for 3 days and subsequently cultured in adipocyte medium. Cultures were re-fed every 2-3 days to allow 90% of cells to reach full differentiation before conducting chemical treatment. Chemicals were freshly diluted in adipocyte medium before treatment. Cells were washed with fresh adipocyte medium, re-fed with medium containing the different treatments, and incubated at 37° C. in 5% CO2 in air before analysis. Cell viability was measured via trypan blue exclusion. […] Cells were loaded with H2-DCFDA (2 μmol/L) 30 minute before the end of the incubation period (48 h). After washing twice with PBS, cells were scraped and disrupted by sonication on ice (20 s). Fluorescence (emission 543 nm or 527 nm) and DNA content were then measured as described previously. The intensity of fluorescence was expressed as arbitrary units per ng DNA."}, "CD14": {"tested_on": "CD14", "test": "CD14 expression in 3T3-L1 adipocytes", "assay_type": "cell-based, mouse", "settings": "nifedipine 10 μmol/L plus calcitriol"}, "3T3-L1 adipocytes [2]": {"tested_on": "3T3-L1 adipocytes", "test": "Cell proliferation / DNA synthesis in cultured adipocytes (CyQUANT)", "assay_type": "cell-based, mouse", "experimental": "3T3-L1 preadipocytes were incubated at a density of 8000 cells/cm^2 (10 cm^2 dish) and grown in Dulbecco's modified Eagle's medium (DMEM) containing 10% FBS and antibiotics (adipocyte medium) at 37° C. in 5% CO2 in air. Confluent preadipocytes were induced to differentiate with a standard differentiation medium consisting of DMEM-F10 (1:1, vol/vol) medium supplemented with 1% FBS, 1 μM dexamethasone, IBMX (0.5 mM) and antibiotics (1% Penicillin-Streptomycin). Preadipocytes were maintained in this differentiation medium for 3 days and subsequently cultured in adipocyte medium. Cultures were re-fed every 2-3 days to allow 90% of cells to reach full differentiation before conducting chemical treatment. Chemicals were freshly diluted in adipocyte medium before treatment. Cells were washed with fresh adipocyte medium, re-fed with medium containing the different treatments, and incubated at 37° C. in 5% CO2 in air before analysis. Cell viability was measured via trypan blue exclusion. Cells were plated in DMEM with different treatment in duplicate in 96-well plates. After 48 h, a CyQUANT Cell Proliferation Kit (Molecular Probes, Eugene, Oreg.) was used following the manufacturer's protocol. a microplate fluorometer (Packard Instrument Company, Inc., Downers Grove, Ill.) was used to measure CyQUANT fluorescence. Cell viability was determined by Trypan blue exclusion examination."}},
  "note": "For at least one compound, name, drawing or mass did not settle the structure.",
  "data": [
    {"compound": "COC(=O)C1=C(C)NC(C)=C(C(=O)OC)C1c1ccccc1[N+](=O)[O-]", "note": "[nifedipine]", "values": [
      {"measurement": "effect on calcitriol increased MIF expression", "setting": "MIF", "result": "reversed"},
      {"measurement": "effect on calcitriol stimulated TNFα expression", "setting": "TNFα", "result": "blocked"},
      {"measurement": "effect on conditioned medium decreased fatty acid oxidation in muscle cells", "setting": "C2C12 myotubes; adipocytes conditioned with leucine and/or nifedipine", "result": "attenuated"},
      {"measurement": "effect on calcitriol decreased muscle cell fatty acid oxidation", "setting": "C2C12 myotubes; compound added to calcitriol", "result": "partially reversed"},
      {"measurement": "effect on 1α, 25-(OH)2-D3 stimulated IL-6 expression", "setting": "IL-6", "result": "blocked"},
      {"measurement": "effect on 1α, 25-(OH)2-D3 stimulated IL-8 expression", "setting": "IL-8", "result": "blocked"},
      {"measurement": "effect on high glucose induced ROS production", "setting": "3T3-L1 adipocytes [1]", "result": "partially reversed"},
      {"measurement": "effect on calcitriol increased CD14 expression", "setting": "CD14", "result": "reversed"},
      {"measurement": "effect on glucose induced DNA synthesis", "setting": "3T3-L1 adipocytes [2]; compound plus glucose 30 mmol/L, 48 hours", "result": "decreased"},
      {"measurement": "effect on H2O2 induced DNA synthesis", "setting": "3T3-L1 adipocytes [2]; α-tocopherol 1 μmol/L or nifedipine 10 μmol/L plus H2O2, 48 hours", "result": "suppressed"}
    ]}
  ]
}
